PubChem BioAssay AID1053208, Peter MacCallum Cancer Centre, 2014
Screen: 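Synthetic lethal interactions between gene loss and doxorubicin in osteosarcoma cells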 (primary screen). System: mouse osteosarcoma cells, early-passage culture from an engineered mouse model of fibroblastic bone tumour. Reagent: siRNA pool against mouse genes, 40 nM. Timing: about 120 h (48 h before drug, then 72 h with drug). Conditions: doxorubicin 100 nM for 72 h, roughly 30-40% inhibitory dose. Measurement: 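Viability read as ATP luminescence after 72 h of 100 nM doxorubicin or none, duplicate wells averaged, scaled to non-targeting siRNA, then expressed as robust z-scores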. Reading the numbers: viability z-score with doxorubicin: higher = more viable cells under doxorubicin; viability z-score without drug: higher = more viable cells with knock-down alone. Rule for the call: 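a pool counts as active when its viability z-score with doxorubicin is -2 or below and its z-score without drug lies between -2 and 2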.
Here is an unselected part of about 17,000 reagents tested. In the full data, 788 (4.7%) got an active call. 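Calls rest on z-score classes alone; an extra cut-off of viability at most 70% of control was not applied to them.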 Further read-outs or replicates are left out here. No sequences are given here.

target gene,combined z-score class,viability z-score with doxorubicin,viability z-score without drug,outcome
Shfl,no change with or without drug,-1.12,-1.01,inactive
Lcp2,no change with or without drug,-0.79,-0.84,inactive
Decr2,no change with or without drug,0,-1.18,inactive
Myl9,no change with or without drug,0.56,-0.51,inactive
Ccnl1,no change with or without drug,-0.45,-0.67,inactive
Otud5,no change with or without drug,-1.12,0.51,inactive
Kif3a,no change with or without drug,0.56,0.84,inactive
Or10d4c,low cell count with and without drug,-2.25,-2.19,inactive
Tsc22d1,low cell count with doxorubicin only,-2.36,-0.84,active
Sbp,no change with or without drug,1.35,0.17,inactive
Hnrnpul1,no change with or without drug,1.35,-0.51,inactive
D930030D11Rik,no change with or without drug,-1.12,0.51,inactive
Or10x4,high cell count without drug only,1.46,2.02,inactive
Zbp1,no change with or without drug,-1.12,-0.51,inactive
Lrtm1,no change with or without drug,0.9,0.17,inactive
Wdr24,high cell count without drug only,1.01,2.19,inactive
Elk3,high cell count with doxorubicin only,2.47,1.52,inactive
Or10d1,no change with or without drug,-1.35,-1.52,inactive
Serpinf2,high cell count without drug only,1.35,2.02,inactive
Plp1,no change with or without drug,1.35,1.18,inactive
Dab2ip,no change with or without drug,-1.91,-0.84,inactive
Ccdc158,no change with or without drug,0,0.51,inactive
Prmt3,no change with or without drug,0.56,1.01,inactive
Il2,no change with or without drug,0.79,0.34,inactive
Trim26,no change with or without drug,0.67,0.84,inactive
Tcf7,high cell count without drug only,0.34,3.54,inactive
Tmc3,no change with or without drug,0.79,1.52,inactive
Bcl11b,no change with or without drug,-0.67,-0.84,inactive
Epop,no change with or without drug,0.45,0.51,inactive
Art4,high cell count with doxorubicin only,2.36,1.52,inactive
Ogfod2,no change with or without drug,-1.12,0.67,inactive
Zfp607b,no change with or without drug,-0.9,-0.17,inactive
Mapk7,high cell count with doxorubicin only,2.25,1.01,inactive
Uba52,low cell count with doxorubicin only,-2.25,-0.51,active
Mrgprb4,no change with or without drug,0.22,0.51,inactive
Ptpru,no change with or without drug,0.22,-0.51,inactive
Gramd2b,no change with or without drug,0.9,1.69,inactive
Bik,no change with or without drug,0.45,0,inactive
Slfn3,low cell count with doxorubicin only,-2.25,-1.85,active
Timm50,no change with or without drug,1.24,1.69,inactive
Zdhhc24,no change with or without drug,-0.22,-1.01,inactive
Arfrp1,no change with or without drug,-0.67,0,inactive
Hic2,no change with or without drug,0.22,0.51,inactive
Tollip,no change with or without drug,-0.67,-0.84,inactive
Pcna,no change with or without drug,-0.34,-0.51,inactive
Mcpt1,no change with or without drug,0.34,0.51,inactive
Gimap6,no change with or without drug,-1.57,-0.17,inactive
Nudcd1,no change with or without drug,1.69,0.84,inactive
Rars1,high cell count with and without drug,2.25,2.53,inactive
Slc40a1,no change with or without drug,0.11,1.01,inactive

A stretch taken from the entries so far, as a working copy:
target gene,combined z-score class,viability z-score with doxorubicin,viability z-score without drug,outcome
Trim26,no change with or without drug,0.67,0.84,inactive
Tcf7,high cell count without drug only,0.34,3.54,inactive
Tmc3,no change with or without drug,0.79,1.52,inactive
